2 substances from paper PMC9198048, “Ursodeoxycholic acid reduces antitumor immunosuppression by inducing CHIP-mediated TGF-β degradation” (Nature Communications, 2022) can be followed below.

Sequences of proteins named here, by UniProt entry; tags and fusion partners are left off. A change or cut given only in a name is not applied to a line headed by its entry. A line that says so, or that is headed by a name, gives the form on record, which may keep a tag or linker. Residues count along the entry.
TGF-β1 (endogenous, naïve CD4+ T cells) (mouse (endogenous in naïve CD4+ T cells)) (P04202, residues 30-390): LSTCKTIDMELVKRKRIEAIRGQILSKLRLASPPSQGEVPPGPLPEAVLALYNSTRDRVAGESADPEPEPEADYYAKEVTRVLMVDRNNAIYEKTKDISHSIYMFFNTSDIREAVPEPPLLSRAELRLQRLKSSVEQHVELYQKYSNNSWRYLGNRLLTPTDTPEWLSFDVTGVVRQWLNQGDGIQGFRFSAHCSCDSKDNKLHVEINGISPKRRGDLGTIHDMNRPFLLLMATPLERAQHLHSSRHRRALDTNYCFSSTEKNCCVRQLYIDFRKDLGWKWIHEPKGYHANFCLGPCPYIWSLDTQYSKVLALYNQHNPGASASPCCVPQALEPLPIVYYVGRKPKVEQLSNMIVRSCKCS
Flag-TGF-β1T282A (P04202, form named): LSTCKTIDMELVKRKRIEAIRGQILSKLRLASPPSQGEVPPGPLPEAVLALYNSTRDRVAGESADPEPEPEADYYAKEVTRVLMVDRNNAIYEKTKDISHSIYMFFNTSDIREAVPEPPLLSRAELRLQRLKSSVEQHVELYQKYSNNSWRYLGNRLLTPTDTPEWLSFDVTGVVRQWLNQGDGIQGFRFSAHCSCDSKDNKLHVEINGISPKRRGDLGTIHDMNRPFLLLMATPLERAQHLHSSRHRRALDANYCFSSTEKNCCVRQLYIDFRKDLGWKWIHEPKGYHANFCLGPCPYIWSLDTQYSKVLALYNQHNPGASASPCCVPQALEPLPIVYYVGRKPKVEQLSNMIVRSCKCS
UniProt Q9WUD1: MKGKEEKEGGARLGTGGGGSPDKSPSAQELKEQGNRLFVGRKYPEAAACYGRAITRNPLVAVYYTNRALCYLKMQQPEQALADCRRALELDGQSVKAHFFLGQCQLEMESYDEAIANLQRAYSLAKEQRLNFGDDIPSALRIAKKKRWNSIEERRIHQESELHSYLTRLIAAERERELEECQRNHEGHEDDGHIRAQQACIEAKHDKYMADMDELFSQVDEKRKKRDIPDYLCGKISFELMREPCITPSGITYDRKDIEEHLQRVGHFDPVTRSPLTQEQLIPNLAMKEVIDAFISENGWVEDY

These are yes or no findings as the source states them, for the method shown. For some assays here: In cells and extracts the contact can be indirect. Some binding calls cover weakened binding; strength is not graded here.

The target in assay [1] is TGF-β1 (endogenous, naïve CD4+ T cells) (mouse (endogenous in naïve CD4+ T cells)) (UniProt P04202). Put plainly: co-IP; endogenous proteins in naïve CD4+ T cells stimulated with anti-CD3 and anti-CD28 for 24 h (also with 50 μM UDCA, with or without 2 μM H89); IP with anti-TGF-β1 or IgG, immunoblot. (In western blotting, separated proteins are transferred to a membrane and probed.)

A further assay addresses His-CHIP (UniProt Q9WUD1). Put plainly: pull-down; about 1 µg His-CHIP bound to His beads mixed with 1 µg Flag-TGF-β1WT or Flag-TGF-β1T282A, 4 °C overnight, washed three times with cell lysis buffer, immunoblot; both purified.

Take “CHIP (endogenous, naïve CD4+ T cells) (from UniProt Q9WUD1 1-304) (enzyme)”: the binding entry in assay [1] was “binds”.

“Flag-TGF-β1T282A (from UniProt P04202 30-390)”: in the assay with His-CHIP, the binding entry is on record as “binds weakly”.
